Eight compounds from patent US20170305883A1, “Compositions and Methods for Inhibiting BMP” (THE BRIGHAM AND WOMEN'S HOSPITAL, INC., priority 2014, published 2017) can be followed below.

No dose or concentration is given here for some results.

In this data set the test system is BMP6. Nature of the data set: Ligand induced transcriptional activity assay (BRE-Luc). The note with it: TGFβ1 IC50 versus BMP6 IC50. The class given is cell-based.
For `COc1cc(-c2cc(-c3ccc(N4CCNCC4)cc3)cnc2N(C)C)cc(OC)c1OC` [Compound 25, N,N-dimethyl-5-(4-(piperazin-1-yl)phenyl)-3-(3,4,5-trimethoxyphenyl)pyridin-2-amine], the “Fold Select.” value was found to be 68. With `COc1cc(OC)cc(-c2cncc(-c3ccc(N4CCNCC4)cc3)c2)c1` [Compound 33, 1-(4-(5-(3,5-dimethoxyphenyl)pyridin-3-yl)phenyl)piperazine] the figure was 102. Then `COc1cc(-c2cnc(N)c(-c3cc(OC)c(OC)c(OC)c3)c2)ccc1O` [Compound 12, 4-(6-amino-5-(3,4,5-trimethoxyphenyl)pyridin-3-yl)-2-methoxyphenol], with 28; and `CNc1ncc(-c2ccc(N3CCNCC3)cc2)cc1-c1cc(OC)c(OC)c(OC)c1` [Compound 24, N-methyl-5-(4-(piperazin-1-yl)phenyl)-3-(3,4,5-trimethoxyphenyl)pyridin-2-amine], with 99; and `COc1cc(-c2cc(-c3ccc(O)cc3)cnc2N)cc(OC)c1OC` [Compound 11, 4-(6-Amino-5-(3,4,5-trimethoxyphenyl)pyridin-3-yl)phenol], with 28. Consider `COc1ccc(-c2cc(-c3ccc(N4CCNCC4)cc3)cnc2N)cc1` [Compound 20, 3-(4-methoxyphenyl)-5-(4-(piperazin-1-yl)phenyl)pyridin-2-amine], for which the “Fold Select.” value turned out to be 48. With `COc1cc(-c2cc(-c3ccc(N4CCNCC4)cc3)cnc2OC)cc(OC)c1OC` [Compound 28, 1-(4-(6-methoxy-5-(3,4,5-trimethoxyphenyl)pyridin-3-yl)phenyl)piperazine] the figure was 48. For the compound `COc1cc(-c2cc(-c3ccc(N4CCNCC4)cc3)cnc2Cl)cc(OC)c1OC` [Compound 27, 1-(4-(6-chloro-5-(3,4,5-trimethoxyphenyl)pyridin-3-yl)phenyl)piperazine], the “Fold Select.” value came to 244.
